# Source: PMC10449492
# B1: DNA/RNA-binding protein (ALBA4) (protein, UniProt A0A5K1K8Y8 1-372)
# chain: MENDKKHNQKQNNVDENEFPNSKVLLVSVKRTRRFLERTARELLAGGTRYIILSGLGDALPLCVQLQSSLQSKNAANVVKIETSYSYFNSNYSYTPGLKIYMEKHPEFKGSRISPGYVSFHEKTDSFTPIYDENPNEYICSLNAGDNNLYVGGEGINGAFSELLSSHNQEVDKYESLFKELLTKAVNENGEKPDEEVKSVLYDNVDKKYPDVKLALCRIRNSLKKGSDHSTGSVFIVTFKKNFPHKKEKNMGMVYVVGPKGKNYNSVEEFLDEVQETAENLMTTLCDYNGLVKREEIKHVRMNTCRICLFSGSIFKHPNASKLDVAKAILNGLAVGYRHGPSPRLNFAYDENVFKDAWVETTGLQVFNHNEQ
# B2: High-molecular-weight rhoptry protein 3 (RhopH3) (protein, UniProt Q8I395 25-897)
# chain: KDVFAGFVTKKLKTLLDCNFALYYNFKGNGPDAGSFLDFVDEPEQFYWFVEHFLSVKFRVPKHLKDKNIHNFTPCLNRSWVSEFLKEYEEPFVNPVMKFLDKEQRLFFTYNFGDVEPQGKYTYFPVKEFHKYCILPPLIKTNIKDGESGEFLKYQLNKEEYKVFLSSVGSQMTAIKNLYSTVEDEQRKQLLKVIIENESTNDISVQCPTYNIKLHYTKECANSNNILKCIDEFLRKTCEKKTESKHPSADLCEHLQFLFESLKNPYLDNFKKFMTNSDFTLIKPQSVWNVPIFDIYKPKNYLDSVQNLDTECFKKLNSKNLIFLSFHDDIPNNPYYNVELQEIVKLSTYTYSIFDKLYNFFFVFKKSGAPISPVSVKELSHNITDFSFKEDNSEIQCQNVRKSLDLEVDVETMKGIAAEKLCKIIEKFILTKDDASKPEKSDIHRGFRILCILISTHVEAYNIVRQLLNMESMISLTRYTSLYIHKFFKSVTLLKGNFLYKNNKAIRYSRACSKASLHVPSVLYRRNIYIPETFLSLYLGLSNLVSSNPSSPFFEYAIIEFLVTYYNKGSEKFVLYFISIISVLYINEYYYEQLSCFYPKEFELIKSRMIHPNIVDRILKGIDNLMKSTRYDKMRTMYLDFESSDIFSREKVFTALYNFDSFIKTNEQLKKKNLEEISEIPVQLETSNDGIGYRKQDVLYETDKPQTMDEASYEETVDEDAHHVNEKQHSAHFLDAIAEKDILEEKTKDQDLEIELYKYMGPLKEQSKSTSAASTSDEISGSEGPSTESTSTGNQGEDKTTDNTYKEMEELEEAEGTSNLKKGLEFYKSSLKLDQLDKEKPKKKKSKRKKKRDSSSDRILLEESKTFTSENEL
# B3: 40S ribosomal protein S3A (RPS3A) (protein, UniProt O97313 1-262)
# chain: MAVGKNKRTSKGKKGGKKKVTDVFTKKEWYDLKAPKMFLVRNFGKTLVTKTIGKKLATDSLKGRIYEVNLADLNNDEDQAHKKIKLSCDHIINRDCYTDFCGLSITRDKLCSLIRKGYTLIEGHTDVKTLDNYHLRMFCIAFTKKRQNQTKSTCYAQTSQIKKIRKKMVDIMTAEASKVLLKDLVKKFIPESIGKEIEKQCKKIYPLQNVLIRKVKILKRPKLDISKLMELHTDPKEESGKNVNALPESKEATNILTAELKH
# Molecular target: PfUPF2-HA (P. falciparum (endogenous in NF54 parasites)) (UniProt Q8I2Q1)
# Experiment: affinity purification with mass spectrometry; anti-HA agarose beads with the Triton X-100-soluble fraction of saponin-isolated trophozoites (PfUPF1-HA, PfUPF2-HA, WT control), overnight at 4°C; IP buffer 1% Triton X-100, 50 mM Tris-HCl, 150 mM NaCl, 2 mM EDTA; five washes; LC-MS/MS of eluates; two biological replicates; hit: at least two significant peptides in both replicates and fivefold over WT or none in WT
row,Molecule,binding
1,60S ribosomal protein L6 (60SRPL6) (from UniProt Q8IE85),binds
2,PfUPF3b (from UniProt A0A5K1K8T6),binds
3,PfUPF1 (from UniProt A0A143ZY29),binds
4,ATP-dependent RNA helicase (DBP1) (from UniProt Q8IAU1) (enzyme),binds
5,Single-strand telomeric DNA-binding protein GBP2 (from UniProt Q8IJX3),binds

# Molecular target: PfUPF1-HA (P. falciparum (endogenous in NF54 parasites))
# Experiment: as above
row,Molecule,binding
1,60S ribosomal protein L13-2 (RPL13-2) (from UniProt Q8IAX6),binds
2,60S ribosomal protein L35 (RPL35) (from UniProt Q8IIB4),binds
3,Phosphoribosylpyrophosphate synthetase (PRPS) (from UniProt Q8IE67),binds
4,Peroxiredoxin (nPrx) (from UniProt Q8IJD0),binds
5,BFR1 domain-containing protein (BFR1) (from UniProt C6KT13),binds

# Molecular target: PfUPF2-HA (P. falciparum (endogenous in NF54 parasites)) (UniProt Q8I2Q1)
# Experiment: as above
# Remark: another data set of the same source
row,Molecule,binding
1,B1,binds

# Molecular target: PfUPF1-HA (P. falciparum (endogenous in NF54 parasites))
# Experiment: as above
# Remark: another data set of the same source
row,Molecule,binding
1,B2,binds
2,B1,binds
3,B3,binds

# These are yes or no findings as the source states them, for the method shown. In cells and extracts the contact can be indirect. Here binding means that the protein was enriched with, or labelled near, the bait; the list need not be complete.
